Measurements reported in PubChem BioAssay AID1224830 (NIAID, 2016).
This is a random part of about 18,000 reagents tested. Of all reagents, about 2,900 (16%) got an active call. 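Calls are made per well; low scores hint the gene aids the LPS response, high scores that it dampens it.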 Repeated entries: four replicate wells of each siRNA pool.

Screen: 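Genes whose knock-down alters the TNF-alpha reporter response to LPS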 (primary screen)
Cell system: human THP-1 monocytic leukaemia cells, TNF dual-luciferase reporter clone, PMA-differentiated to macrophage-like cells
Knock-down reagent: siRNA pool against human genes, 50 nM
Timing: LPS for 4 h, given about 3 days after siRNA transfection
Conditions: bacterial LPS (TLR4 ligand), 10 ng/ml
Measurement: 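Ratio of firefly to renilla light, scaled to the plate median and expressed as a robust z-score per replicate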
Direction: TNF reporter robust z-score: higher = stronger TNF reporter response to LPS
Active means: 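a well is active when its z-score exceeds 2.8 or falls below -1.5; control wells carry no call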

For INTS1 [SID315455706], the values are TNF reporter robust z-score -0.15; inactive. INTS1 [SID315455706] scored TNF reporter robust z-score -0.44; inactive. INTS1 [SID315455706] scored TNF reporter robust z-score -0.22; inactive. With knock-down of INTS1 [SID315455706] the results were TNF reporter robust z-score 0.24; inactive. With knock-down of NCOA7 [SID315461984], the record shows TNF reporter robust z-score -1.13; inactive. NCOA7 [SID315461984] gave TNF reporter robust z-score -1.29; inactive.

For NCOA7 [SID315461984], the values are TNF reporter robust z-score -1.31; inactive. For NCOA7 [SID315461984] the deposit lists TNF reporter robust z-score -0.94; inactive. After knock-down of HNRNPF [SID315449255], the record shows TNF reporter robust z-score 1.22; inactive. Silencing of HNRNPF [SID315449255] resulted in: TNF reporter robust z-score 0.58; inactive. Depletion of HNRNPF [SID315449255] gave: TNF reporter robust z-score -0.76; inactive. After knock-down of HNRNPF [SID315449255], the record shows TNF reporter robust z-score 2.06; inactive.

LRRC20 [SID315457510] showed TNF reporter robust z-score 0.75; inactive. Depletion of LRRC20 [SID315457510] came out at: TNF reporter robust z-score 0.85; inactive. LRRC20 [SID315457510] scored TNF reporter robust z-score 1.14; inactive. With knock-down of LRRC20 [SID315457510], the screen gave TNF reporter robust z-score 1.31; inactive. Against RRP9 [SID315453073], the entry reads TNF reporter robust z-score -0.45; inactive. Silencing of RRP9 [SID315453073] gave: TNF reporter robust z-score -1.52; active.

After knock-down of RRP9 [SID315453073], the record shows TNF reporter robust z-score -0.27; inactive. Against RRP9 [SID315453073] the deposit lists TNF reporter robust z-score -0.67; inactive. After knock-down of LEP [SID315449750], the screen gave TNF reporter robust z-score -1.08; inactive. With knock-down of LEP [SID315449750], the record shows TNF reporter robust z-score 1.97; inactive. Depletion of LEP [SID315449750] resulted in: TNF reporter robust z-score 0.45; inactive. Depletion of LEP [SID315449750] came out at: TNF reporter robust z-score 0.89; inactive.

CNKSR1 [SID315453952] scored TNF reporter robust z-score 0.89; inactive. Against CNKSR1 [SID315453952], the entry reads TNF reporter robust z-score 1.68; inactive. Silencing of CNKSR1 [SID315453952] resulted in: TNF reporter robust z-score 1.45; inactive. With knock-down of CNKSR1 [SID315453952] the results were TNF reporter robust z-score 1.55; inactive. KLF10 [SID315451873] showed TNF reporter robust z-score -0.11; inactive. KLF10 [SID315451873] showed TNF reporter robust z-score 0.54; inactive.

With knock-down of KLF10 [SID315451873] the results were TNF reporter robust z-score -0.03; inactive. KLF10 [SID315451873] showed TNF reporter robust z-score -1.13; inactive.

Copied from the entries so far (2 entries):
KLF10 [SID315451873] — TNF reporter robust z-score: 0.54; outcome: inactive
KLF10 [SID315451873] — TNF reporter robust z-score: -0.03; outcome: inactive
